These are yes or no findings as the source states them, for the method shown. For some assays here: A result given as binding can be weak or reduced; the word gives no strength.
B1: 6B-interacting protein 1-like-1 (ASIL1) (protein, UniProt Q9SYG2 1-383)
chain: MEDDDEIQSIPSPGDSSLSPQAPPSPPILPTNDVTVAVVKKPQPGLSSQSPSMNALALVVHTPSVTGGGGSGNRNGRGGGGGSGGGGGGRDDCWSEEATKVLIEAWGDRFSEPGKGTLKQQHWKEVAEIVNKSRQCKYPKTDIQCKNRIDTVKKKYKQEKAKIASGDGPSKWVFFKKLESLIGGTTTFIASSKASEKAPMGGALGNSRSSMFKRQTKGNQIVQQQQEKRGSDSMRWHFRKRSASETESESDPEPEASPEESAESLPPLQPIQPLSFHMPKRLKVDKSGGGGSGVGDVARAILGFTEAYEKAETAKLKLMAELEKERMKFAKEMELQRMQFLKTQLEITQNNQEEEERSRQRGERRIVDDDDDRNGKNNGNVSS
B2: AtPRMT7 (enzyme, UniProt Q944R7 1-724)
chain: MSPLSSLPPKTFISSFHCHSVTRLRRSVTARTMSSQSSQRVFQLRQDPLTGNSEWIVIEDNDQPGTSTDGLLATTSYLDMLNDSRRNIAYRLAIEKTITEPCHVLDIGAGTGLLSMMAVRAMRGDSKGMVTACESYLPMVKLMRKVMHKNGMTKNINLINKRSDELKVGSEDIASRADVLVSEILDSELLGEGLIPSLQHAHDMLLVDNPKTVPYRATTYCQLVESTFLCNLQDLRNNEAKTSDGVRLVPPGLESLFGIKSQQYSMHVDAIEKEIKLLSEPVKIFEFDFWKRPESNGELDVHIEAKTTGSVHAIISWWVLQLDSEGTIFYSTAPRWIDSNSEIGVRDWCDHWKQCVWFTPGTGVSISKGEKVHLHASHTCTNILYNLKKTQSLTHERTHFPLSTGDLHLTLPPERVAIYGDSIYRQSLFEATRKALQGKSYPQCLVIDDSLLLPLMALHISNRSRVLSLSPGLQENAARYFEAIADSNGFSKDRFEYFRDGKTNLAKAYPGKIDLLIGEPYYSGLENGLPWQNLRFWKDRTLLDSVLSEDAVVMPYKGVLRGCAMYLPDLWKSRCCLGSVEGFDHTLVNTTLGGCGDLPSGKDSPCLPFFIWQCGETKILSKEFTVMEFDFSKPITGPCSGEVQIEFIKPGVCHGIALWMDWVMDEENSTVISTGPDDKYWKQGVKLLGKPVTVRMEGPSSSIGIQASLDLSSNSELIVTHTIS

Experiments:
[1] = molecular target: AtSPF30 (SPLICING FACTOR 30) (Arabidopsis thaliana); assay: two-hybrid; one-to-one Y2H; CDSs in pGADT7 (AD) or pGBKT7 (BD); yeast strain AH109; co-transformants selected on SD -W -L at 28 °C; serial dilutions on SD -W -L -H; photos after 4 d
[2] = molecular target: PICLN (Arabidopsis thaliana); assay: as above

Row | Binder | binding [1] | binding [2]
1 | B1 | binds | 
2 | B2 |  | no binding

Reference: paper PMC13596061
